Binding screen against folded nucleic acids

Data from the ROBIN nucleic acid binder screens, doi:10.1002/anie.202211358.

Targets, with sequences 5′ to 3′:
TPP: TPP riboswitch RNA three-way junction, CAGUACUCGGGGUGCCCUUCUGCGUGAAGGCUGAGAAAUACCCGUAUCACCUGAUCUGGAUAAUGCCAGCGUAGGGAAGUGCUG. Hit rate about 0.7% of about 24,000 compounds.
PreQ1: PreQ1 riboswitch RNA pseudoknot, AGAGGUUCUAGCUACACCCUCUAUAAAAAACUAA. From B. subtilis. Hit rate about 0.7% of about 24,000 compounds.
SAM-II: SAM-II riboswitch RNA pseudoknot, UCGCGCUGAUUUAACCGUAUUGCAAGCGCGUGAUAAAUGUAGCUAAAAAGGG. Hit rate about 1% of about 21,000 compounds.

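The test is a small-molecule microarray: each compound is printed twice on a reactive slide, and binding shows as fluorescence of the labelled oligonucleotide after washing. For the PreQ1, TPP and SAM-II riboswitches the laboratory earlier reported (doi:10.1038/s41467-019-09493-3) 1 µM RNA, 2 h, and a rule that included a mean Z-score above 3 (spot signal-to-noise against the whole library), a score well above that on a control array, and duplicate spots agreeing (coefficient of variation under 100). The data file gives only the calls; its cut-offs may differ, and compounds hitting several targets are kept. These are primary screening calls, not affinities; a compound without a hit may have attached poorly or may still bind in solution.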 A compound is marked active if it was called a hit and inactive if it was screened but was not. This is an unselected part of the compounds tested. A target missing from an entry has no call listed here. A dash means that no call is listed here.

With CCOCCCNCc1ccc(-c2ccc(OC)c(Cl)c2)o1 the screen gave TPP: inactive; PreQ1: inactive.
With CN(Cc1nc2ccc(F)cc2[nH]1)C(=O)[C@@H](N)Cc1ccc(O)cc1 the screen gave TPP: inactive; PreQ1: inactive; SAM-II: inactive.
With CCCc1cc(=O)oc2c3c(c4c(c12)OC(C)(C)C=C4)OC(C)[C@H](C)[C@@H]3O (some centres unmarked) the screen gave TPP: inactive; PreQ1: inactive; SAM-II: inactive.
With O=C(N[C@@H]1c2ccccc2C2(CCNCC2)[C@H]1O)c1cn2ccsc2n1 the screen gave TPP: inactive; PreQ1: inactive; SAM-II: inactive.
With CC(C)Oc1ccccc1C1C(C#N)=C(N)Oc2c1oc(CO)cc2=O (centres unmarked) the screen gave TPP: inactive; PreQ1: inactive; SAM-II: inactive.
With CCNc1nc(C)cc(N2CCN(S(=O)(=O)c3ccc(Cl)cc3)CC2)n1 the screen gave TPP: inactive; PreQ1: inactive.
With CN1[C@H]2CC[C@@H]1CN(Cc1cc3n(n1)CCCNC3)CC2 the screen gave TPP: inactive; PreQ1: inactive; SAM-II: inactive.
With CS(=O)(=O)c1sc2nc(-c3ccccc3)cc(-c3ccccc3)c2c1N the screen gave TPP: inactive; PreQ1: inactive; SAM-II: inactive.
With COC(=O)C1=C(N)OC(C)=C(C(=O)OCc2ccccc2)C12C(=O)Nc1ccc(Br)cc12 (centres unmarked) the screen gave TPP: inactive; PreQ1: inactive; SAM-II: inactive.
With CC1(c2csc(Nc3ccccc3Cl)n2)CCC(=O)O1 (centres unmarked) the screen gave TPP: inactive; PreQ1: inactive; SAM-II: inactive.
With COc1cc(Cl)c(C2C(C#N)=C(N)Oc3cc(O)ccc32)cc1OC (centres unmarked) the screen gave TPP: inactive; PreQ1: inactive; SAM-II: inactive.
With Cc1[nH]c(=O)c(C#N)cc1-c1ccc2nccn2c1 the screen gave TPP: inactive; PreQ1: inactive; SAM-II: inactive.
With C[C@@]1(O)CCN(C(=O)c2ccc(OCc3ccccc3F)cc2)C[C@@H]1O the screen gave TPP: inactive; PreQ1: inactive; SAM-II: inactive.
With Cc1cc(C)c(-c2cc(CN)ccc2F)c(C)c1 the screen gave TPP: inactive; PreQ1: inactive; SAM-II: inactive.
With CC(CC(C)(C)Nc1ccccc1)=NO.Cl the screen gave TPP: inactive; PreQ1: inactive; SAM-II: inactive.
With CC(C)OC(=O)C1=C(N)Oc2c(oc(CO)cc2=O)C1c1ccc(F)cc1 (centres unmarked) the screen gave TPP: inactive; PreQ1: inactive; SAM-II: inactive.
With CSc1nc(NC2CCCCC2)c(C#N)c(-c2ccccc2)n1 the screen gave TPP: inactive; PreQ1: inactive.
With CCOc1ccc(CCNc2nc(-c3ccc(OC)cc3)no2)cc1OCC the screen gave TPP: inactive; PreQ1: inactive.
With Cc1ccc(-c2cc(-c3ccc4c(c3)OCO4)c(C#N)c(N)c2C#N)cc1 the screen gave TPP: inactive; PreQ1: inactive; SAM-II: inactive.
With O=C(CCc1cc2n(n1)CCCNC2)NCCSc1ccc(Cl)cc1 the screen gave TPP: inactive; PreQ1: inactive; SAM-II: inactive.
With Cc1ccc2nc(Nc3ccc(F)cc3)c3nncn3c2c1 the screen gave TPP: inactive; PreQ1: inactive; SAM-II: inactive.
With Cc1ccc(Nc2ncnc3c2nc2n3CCCC2)cc1Cl the screen gave TPP: inactive; PreQ1: inactive.
With Cc1ccccc1CNC(=O)CN1CCNCC(C(=O)O)C1 (centres unmarked) the screen gave TPP: inactive; PreQ1: inactive; SAM-II: inactive.
With OC(c1ccc(C(F)(F)F)cc1)c1nc(CCc2ccccc2)n[nH]1 (centres unmarked) the screen gave TPP: inactive; PreQ1: inactive; SAM-II: inactive.
With CCC1C(c2ccccc2)NC(c2ccccc2)CC1(O)c1ccc(F)cc1.Cl (centres unmarked) the screen gave TPP: inactive; PreQ1: inactive; SAM-II: inactive.
With O=C(NC1CC1)c1cccc(-c2ccc3c(NC(=O)C4CC4)n[nH]c3c2)c1 the screen gave TPP: inactive; PreQ1: inactive; SAM-II: inactive.
With COc1ccc(C2CC(=O)c3cnc(Nc4cccc(C)c4)nc3C2)cc1OC (centres unmarked) the screen gave TPP: inactive; PreQ1: inactive.
With Cc1ccc([C@@H]2C[C@H](c3c(F)cccc3Cl)n3nc(N)nc3N2)cc1 the screen gave TPP: inactive; PreQ1: inactive; SAM-II: inactive.
With Nc1ccc2[nH]c(-c3ccc(C(=O)O)cc3)nc2c1 the screen gave TPP: inactive; PreQ1: inactive; SAM-II: inactive.
With CN(C)C[C@H]1C[C@H](CO)CN(C(=O)c2ccc(-c3cnco3)cc2)C1 the screen gave TPP: inactive; PreQ1: inactive; SAM-II: inactive.
With COc1ccc(CNc2c(S(=O)(=O)c3ccccc3)cnc3ccc(C)cc23)cc1 the screen gave TPP: inactive; PreQ1: inactive.
With Nc1cn[nH]c1 the screen gave TPP: inactive; PreQ1: inactive; SAM-II: inactive.
With CCOC(=O)C(Nc1cccc(F)c1)c1ccccc1 (centres unmarked) the screen gave TPP: inactive; PreQ1: inactive; SAM-II: inactive.
With CCCC1OCC2(CO)C(C)C=C(C)C1C2C (centres unmarked) the screen gave TPP: inactive; PreQ1: inactive; SAM-II: inactive.
With Cc1ccccc1-n1cnc2cc(NCc3ccncc3)ccc21 the screen gave TPP: inactive; PreQ1: inactive; SAM-II: inactive.
With COCCCNCc1c(C(=O)O)n(Cc2ccccc2Cl)c2ccccc12 the screen gave TPP: inactive; PreQ1: inactive.
With Cc1n[nH]c2c1C(c1ccc(Cl)c(Cl)c1)C(C#N)=C(N)O2 (centres unmarked) the screen gave TPP: inactive; PreQ1: inactive; SAM-II: inactive.

The last 4 entries again:

| SMILES | TPP | PreQ1 | SAM-II |
|---|---|---|---|
| `CCCC1OCC2(CO)C(C)C=C(C)C1C2C` (centres unmarked) | inactive | inactive | inactive |
| `Cc1ccccc1-n1cnc2cc(NCc3ccncc3)ccc21` | inactive | inactive | inactive |
| `COCCCNCc1c(C(=O)O)n(Cc2ccccc2Cl)c2ccccc12` | inactive | inactive | - |
| `Cc1n[nH]c2c1C(c1ccc(Cl)c(Cl)c1)C(C#N)=C(N)O2` (centres unmarked) | inactive | inactive | inactive |